Where a name gives a salt, the structure may show the parent alone. Some of the results follow. Hit calls seldom repeat between salt and free forms of one compound.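 In K562 cells expressing nanoluciferase-fused kinases, luminescence was recorded at 4 h intervals between 2 and 18 h, normalized as percent of control with DMSO at 100% and a positive control at 0%. A significant (2 sigma) signal drop marks a time point as decreased. The authors' rule for a hit is not shown and takes in more than the number of time points.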
Key:
Settings in all cases: K562; 2-18 h
STK38 = STK38 (UniProt Q15208); experiment: kinase-Nluc reporter destabilization hit call (1 = scored as downregulated) (binary); higher = compound decreases kinase abundance
SYK = SYK (UniProt P43405); experiment: as above
TEC = TEC (UniProt P42680); experiment: as above
TYK2 = TYK2 (UniProt P29597); experiment: as above
ULK3 = ULK3 (UniProt Q6PHR2); experiment: as above
YES1 = YES1 (UniProt P07947); experiment: as above
ZAK = ZAK (UniProt Q9NYL2); experiment: as above
ZAP70 = ZAP70 (UniProt P43403); experiment: as above
ABL1 = ABL1 (UniProt P00519); experiment: number of time points (of 5) at which kinase-Nluc abundance scored as decreased, DMSO-normalised (count); higher = more persistent destabilization
AKT1 = AKT1 (UniProt P31749); experiment: as above
ALK = ALK (UniProt Q9UM73); experiment: as above
ARAF = ARAF (UniProt P10398); experiment: as above
AURKA = AURKA (UniProt O14965); experiment: as above
AURKB = AURKB (UniProt Q96GD4); experiment: as above
AURKC = AURKC (UniProt Q9UQB9); experiment: as above
BLK = BLK (UniProt P51451); experiment: as above
BMX = BMX (UniProt P51813); experiment: as above
BRAF = BRAF (UniProt P15056); experiment: as above
BRAF_V600E = experiment: as above
BTK = BTK (UniProt Q06187); experiment: as above

Amino acid sequences for entries named in this document (tags omitted). A change or cut given only in a name is not applied to a line headed by its entry.
UniProt Q15208: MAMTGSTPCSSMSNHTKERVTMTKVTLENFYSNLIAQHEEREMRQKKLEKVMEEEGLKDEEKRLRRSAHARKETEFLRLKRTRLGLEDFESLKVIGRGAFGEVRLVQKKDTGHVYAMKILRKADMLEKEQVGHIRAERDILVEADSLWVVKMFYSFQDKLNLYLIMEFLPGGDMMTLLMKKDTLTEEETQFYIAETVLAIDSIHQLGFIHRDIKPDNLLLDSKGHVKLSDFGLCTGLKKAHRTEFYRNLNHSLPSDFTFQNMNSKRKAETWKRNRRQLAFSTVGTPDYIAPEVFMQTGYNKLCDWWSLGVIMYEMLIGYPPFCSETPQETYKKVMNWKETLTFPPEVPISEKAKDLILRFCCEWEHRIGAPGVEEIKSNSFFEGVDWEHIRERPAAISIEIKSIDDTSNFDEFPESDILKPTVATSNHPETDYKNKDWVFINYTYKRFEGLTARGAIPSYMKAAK
UniProt P42680: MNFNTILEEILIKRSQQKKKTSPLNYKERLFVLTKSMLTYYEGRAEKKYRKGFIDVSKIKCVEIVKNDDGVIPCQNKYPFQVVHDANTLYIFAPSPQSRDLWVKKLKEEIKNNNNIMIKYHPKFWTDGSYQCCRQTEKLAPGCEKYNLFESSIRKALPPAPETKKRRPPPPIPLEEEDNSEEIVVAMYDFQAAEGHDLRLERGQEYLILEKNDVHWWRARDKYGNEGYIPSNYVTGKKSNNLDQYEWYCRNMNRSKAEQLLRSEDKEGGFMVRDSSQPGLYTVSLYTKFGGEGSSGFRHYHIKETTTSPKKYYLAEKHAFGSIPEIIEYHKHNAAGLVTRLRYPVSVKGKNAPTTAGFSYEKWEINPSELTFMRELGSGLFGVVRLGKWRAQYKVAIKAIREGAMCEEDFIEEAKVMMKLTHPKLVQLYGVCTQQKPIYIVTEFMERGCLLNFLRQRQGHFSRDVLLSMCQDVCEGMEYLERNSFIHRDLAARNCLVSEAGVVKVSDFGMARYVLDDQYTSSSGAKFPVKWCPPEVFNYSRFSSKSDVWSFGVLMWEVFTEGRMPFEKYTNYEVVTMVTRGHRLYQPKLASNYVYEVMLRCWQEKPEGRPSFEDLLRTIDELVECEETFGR
UniProt P29597: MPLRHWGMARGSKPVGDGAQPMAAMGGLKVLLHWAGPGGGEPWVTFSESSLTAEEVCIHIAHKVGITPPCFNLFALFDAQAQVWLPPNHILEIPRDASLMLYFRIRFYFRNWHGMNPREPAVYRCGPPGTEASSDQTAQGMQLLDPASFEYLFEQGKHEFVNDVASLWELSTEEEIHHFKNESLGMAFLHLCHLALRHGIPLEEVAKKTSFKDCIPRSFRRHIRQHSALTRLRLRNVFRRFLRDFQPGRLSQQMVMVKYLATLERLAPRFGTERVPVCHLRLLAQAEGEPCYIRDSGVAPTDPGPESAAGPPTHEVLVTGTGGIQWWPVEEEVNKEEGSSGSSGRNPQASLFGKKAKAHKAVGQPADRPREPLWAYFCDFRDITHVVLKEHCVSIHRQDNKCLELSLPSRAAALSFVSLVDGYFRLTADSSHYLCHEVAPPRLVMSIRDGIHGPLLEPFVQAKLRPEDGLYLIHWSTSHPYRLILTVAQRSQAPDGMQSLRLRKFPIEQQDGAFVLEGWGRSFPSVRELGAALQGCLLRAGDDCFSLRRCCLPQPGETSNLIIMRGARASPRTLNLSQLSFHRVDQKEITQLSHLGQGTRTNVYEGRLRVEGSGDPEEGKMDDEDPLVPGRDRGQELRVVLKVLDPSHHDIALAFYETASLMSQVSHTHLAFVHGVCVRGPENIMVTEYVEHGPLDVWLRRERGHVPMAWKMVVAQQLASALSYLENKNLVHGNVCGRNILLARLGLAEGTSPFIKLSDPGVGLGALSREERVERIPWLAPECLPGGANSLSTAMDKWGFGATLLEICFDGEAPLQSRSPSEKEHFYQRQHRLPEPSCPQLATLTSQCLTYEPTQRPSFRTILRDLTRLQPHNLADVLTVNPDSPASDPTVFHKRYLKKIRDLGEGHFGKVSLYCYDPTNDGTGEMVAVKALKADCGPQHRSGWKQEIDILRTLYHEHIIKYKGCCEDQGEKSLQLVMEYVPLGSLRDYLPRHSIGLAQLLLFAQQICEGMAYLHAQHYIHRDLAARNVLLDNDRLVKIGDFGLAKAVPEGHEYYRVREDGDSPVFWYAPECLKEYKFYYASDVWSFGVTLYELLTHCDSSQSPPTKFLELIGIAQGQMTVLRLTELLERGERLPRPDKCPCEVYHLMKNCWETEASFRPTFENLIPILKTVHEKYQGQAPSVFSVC
UniProt Q6PHR2: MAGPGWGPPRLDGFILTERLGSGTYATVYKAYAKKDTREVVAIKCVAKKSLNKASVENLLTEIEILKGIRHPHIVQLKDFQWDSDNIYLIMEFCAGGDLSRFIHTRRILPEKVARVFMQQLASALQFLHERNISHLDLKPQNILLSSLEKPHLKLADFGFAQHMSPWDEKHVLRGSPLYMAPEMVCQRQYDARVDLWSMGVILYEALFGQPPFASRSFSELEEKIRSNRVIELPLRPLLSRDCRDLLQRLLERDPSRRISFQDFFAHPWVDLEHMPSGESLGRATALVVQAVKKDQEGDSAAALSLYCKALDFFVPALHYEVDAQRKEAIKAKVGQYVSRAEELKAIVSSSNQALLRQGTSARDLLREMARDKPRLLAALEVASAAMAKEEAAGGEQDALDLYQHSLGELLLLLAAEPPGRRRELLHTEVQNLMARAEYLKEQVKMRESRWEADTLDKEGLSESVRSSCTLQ
UniProt P07947, whole entry, looked up: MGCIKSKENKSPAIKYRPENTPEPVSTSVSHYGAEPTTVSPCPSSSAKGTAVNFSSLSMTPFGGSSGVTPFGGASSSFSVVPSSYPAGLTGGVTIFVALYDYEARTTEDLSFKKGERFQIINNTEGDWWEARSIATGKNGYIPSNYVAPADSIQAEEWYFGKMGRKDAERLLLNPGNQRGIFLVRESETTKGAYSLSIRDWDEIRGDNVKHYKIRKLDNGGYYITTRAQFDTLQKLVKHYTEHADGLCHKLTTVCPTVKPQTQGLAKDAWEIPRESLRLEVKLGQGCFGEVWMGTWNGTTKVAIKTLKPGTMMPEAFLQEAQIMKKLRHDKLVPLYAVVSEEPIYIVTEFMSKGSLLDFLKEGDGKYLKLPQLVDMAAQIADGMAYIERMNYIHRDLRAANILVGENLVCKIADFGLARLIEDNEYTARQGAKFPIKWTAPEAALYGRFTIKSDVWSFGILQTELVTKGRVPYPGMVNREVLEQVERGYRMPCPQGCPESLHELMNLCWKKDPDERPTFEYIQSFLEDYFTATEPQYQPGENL
UniProt P00519, whole entry: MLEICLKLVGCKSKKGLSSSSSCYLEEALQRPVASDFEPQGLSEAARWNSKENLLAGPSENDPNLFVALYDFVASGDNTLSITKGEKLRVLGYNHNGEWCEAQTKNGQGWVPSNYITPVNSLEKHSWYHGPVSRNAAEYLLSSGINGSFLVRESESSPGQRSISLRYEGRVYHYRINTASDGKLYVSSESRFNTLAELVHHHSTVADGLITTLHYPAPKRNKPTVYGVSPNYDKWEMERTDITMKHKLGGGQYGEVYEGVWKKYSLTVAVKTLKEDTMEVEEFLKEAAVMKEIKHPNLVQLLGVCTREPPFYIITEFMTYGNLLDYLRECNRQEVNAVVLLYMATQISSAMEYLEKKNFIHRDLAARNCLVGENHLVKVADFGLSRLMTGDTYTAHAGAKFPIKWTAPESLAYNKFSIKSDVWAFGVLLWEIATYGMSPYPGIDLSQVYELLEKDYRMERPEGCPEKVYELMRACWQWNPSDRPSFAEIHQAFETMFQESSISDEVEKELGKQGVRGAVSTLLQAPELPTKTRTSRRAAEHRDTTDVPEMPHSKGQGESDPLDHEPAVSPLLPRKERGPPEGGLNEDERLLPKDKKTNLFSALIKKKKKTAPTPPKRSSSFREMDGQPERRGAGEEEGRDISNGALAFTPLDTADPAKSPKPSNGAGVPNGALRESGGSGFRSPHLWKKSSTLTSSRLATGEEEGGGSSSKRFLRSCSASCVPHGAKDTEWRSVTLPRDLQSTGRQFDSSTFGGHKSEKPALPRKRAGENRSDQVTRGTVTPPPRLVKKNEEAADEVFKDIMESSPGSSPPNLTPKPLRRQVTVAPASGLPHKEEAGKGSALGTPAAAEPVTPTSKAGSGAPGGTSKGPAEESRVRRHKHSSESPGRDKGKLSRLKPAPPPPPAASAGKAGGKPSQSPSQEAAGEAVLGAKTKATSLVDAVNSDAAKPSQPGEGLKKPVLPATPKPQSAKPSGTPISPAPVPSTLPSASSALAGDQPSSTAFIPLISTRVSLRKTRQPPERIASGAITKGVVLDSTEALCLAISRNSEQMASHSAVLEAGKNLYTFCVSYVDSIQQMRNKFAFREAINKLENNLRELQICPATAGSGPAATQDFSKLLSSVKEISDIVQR
UniProt P10398: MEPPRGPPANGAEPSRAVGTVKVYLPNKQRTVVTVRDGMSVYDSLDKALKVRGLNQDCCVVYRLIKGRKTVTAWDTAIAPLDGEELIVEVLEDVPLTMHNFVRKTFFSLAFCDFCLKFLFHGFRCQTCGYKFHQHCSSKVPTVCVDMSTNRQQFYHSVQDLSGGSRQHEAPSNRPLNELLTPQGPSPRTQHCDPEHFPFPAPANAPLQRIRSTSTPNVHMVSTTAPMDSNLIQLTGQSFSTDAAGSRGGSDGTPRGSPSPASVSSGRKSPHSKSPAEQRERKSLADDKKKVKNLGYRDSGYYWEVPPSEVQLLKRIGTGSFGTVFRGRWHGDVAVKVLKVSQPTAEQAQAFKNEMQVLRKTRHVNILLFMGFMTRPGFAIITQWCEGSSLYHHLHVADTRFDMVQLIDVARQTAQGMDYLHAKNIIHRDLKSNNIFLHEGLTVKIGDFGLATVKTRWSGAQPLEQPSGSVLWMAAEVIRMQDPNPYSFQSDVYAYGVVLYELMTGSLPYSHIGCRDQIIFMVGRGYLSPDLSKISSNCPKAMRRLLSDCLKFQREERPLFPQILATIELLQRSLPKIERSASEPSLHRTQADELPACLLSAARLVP
UniProt Q96GD4, whole entry: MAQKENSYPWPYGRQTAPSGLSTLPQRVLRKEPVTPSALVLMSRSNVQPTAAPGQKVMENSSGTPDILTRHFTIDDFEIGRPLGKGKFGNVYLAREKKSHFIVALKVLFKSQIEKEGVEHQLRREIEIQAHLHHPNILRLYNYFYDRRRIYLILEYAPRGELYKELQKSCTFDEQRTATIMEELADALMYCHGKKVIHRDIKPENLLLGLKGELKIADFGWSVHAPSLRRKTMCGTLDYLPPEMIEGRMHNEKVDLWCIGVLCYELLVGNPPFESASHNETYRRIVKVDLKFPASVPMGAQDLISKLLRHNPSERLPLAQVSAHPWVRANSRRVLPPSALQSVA
UniProt Q9UQB9: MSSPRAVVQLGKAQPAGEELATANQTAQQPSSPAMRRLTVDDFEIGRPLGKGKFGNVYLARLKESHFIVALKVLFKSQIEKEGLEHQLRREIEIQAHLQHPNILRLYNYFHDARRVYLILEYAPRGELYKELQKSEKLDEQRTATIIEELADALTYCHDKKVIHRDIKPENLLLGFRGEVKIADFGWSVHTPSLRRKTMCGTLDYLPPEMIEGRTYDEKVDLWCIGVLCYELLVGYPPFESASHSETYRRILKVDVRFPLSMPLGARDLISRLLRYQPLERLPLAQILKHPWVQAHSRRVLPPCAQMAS
UniProt P15056, whole entry, looked up: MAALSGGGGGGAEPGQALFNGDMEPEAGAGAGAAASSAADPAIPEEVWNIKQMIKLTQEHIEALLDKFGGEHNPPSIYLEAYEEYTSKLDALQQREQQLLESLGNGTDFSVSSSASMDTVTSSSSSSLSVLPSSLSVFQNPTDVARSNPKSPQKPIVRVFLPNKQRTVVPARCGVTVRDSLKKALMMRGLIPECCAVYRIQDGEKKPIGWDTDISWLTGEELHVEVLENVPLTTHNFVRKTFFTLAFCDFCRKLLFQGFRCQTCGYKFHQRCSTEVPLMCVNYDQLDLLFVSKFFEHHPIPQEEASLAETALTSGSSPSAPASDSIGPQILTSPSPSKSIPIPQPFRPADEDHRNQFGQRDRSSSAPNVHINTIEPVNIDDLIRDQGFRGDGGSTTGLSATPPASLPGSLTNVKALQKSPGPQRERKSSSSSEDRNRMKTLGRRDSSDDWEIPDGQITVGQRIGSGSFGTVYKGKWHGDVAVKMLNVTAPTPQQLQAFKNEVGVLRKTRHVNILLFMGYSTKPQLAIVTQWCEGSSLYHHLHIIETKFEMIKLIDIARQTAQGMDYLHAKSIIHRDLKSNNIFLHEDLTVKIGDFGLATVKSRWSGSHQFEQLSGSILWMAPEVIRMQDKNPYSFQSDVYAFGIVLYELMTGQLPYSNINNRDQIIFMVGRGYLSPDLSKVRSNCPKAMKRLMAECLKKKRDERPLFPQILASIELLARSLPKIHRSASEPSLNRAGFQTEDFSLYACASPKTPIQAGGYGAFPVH

Compound | kinase-Nluc reporter destabilization hit call (STK38) | kinase-Nluc reporter destabilization hit call (SYK) | kinase-Nluc reporter destabilization hit call (TEC) | kinase-Nluc reporter destabilization hit call (TYK2) | kinase-Nluc reporter destabilization hit call (ULK3) | kinase-Nluc reporter destabilization hit call (YES1) | kinase-Nluc reporter destabilization hit call (ZAK) | kinase-Nluc reporter destabilization hit call (ZAP70) | number of time points (ABL1) | number of time points (AKT1) | number of time points (ALK) | number of time points (ARAF) | number of time points (AURKA) | number of time points (AURKB) | number of time points (AURKC) | number of time points (BLK) | number of time points (BMX) | number of time points (BRAF) | number of time points (BRAF_V600E) | number of time points (BTK)
Nc1nc2c(nc(Br)n2[C@@H]2O[C@@H]3COP(=O)(O)O[C@H]3[C@H]2O)c(=O)[nH]1 [8-Bromo-cGMP (sodium)] (10 µM) | inactive: 0 | inactive: 0 | inactive: 0 | inactive: 0 | inactive: 0 | inactive: 0 | inactive: 0 | inactive: 0 | 0 | 0 | 0 | 0 | 0 | 0 | 0 | 0 | 0 | 0 | 0 | 0
CCC(=O)Nc1cccc(Oc2nc(Nc3ccc(N4CCN(C)CC4)cc3OC)ncc2Cl)c1 (10 µM) | inactive: 0 | inactive: 0 | inactive: 0 | inactive: 0 | inactive: 0 | inactive: 0 | inactive: 0 | inactive: 0 | 0 | 0 | 0 | 0 | 0 | 0 | 0 | 0 | 0 | 0 | 0 | 0
NCCOc1ccc(Cl)cc1C(=O)Nc1ccc([N+](=O)[O-])cc1Cl [HJC0152 hydrochloride] (2 µM) | inactive: 0 | inactive: 0 | inactive: 0 | inactive: 0 | inactive: 0 | inactive: 0 | inactive: 0 | inactive: 0 | 0 | 0 | 0 | 0 | 0 | 0 | 0 | 0 | 0 | 0 | 0 | 0
Cc1cc([C@@H](C)Nc2ccccc2C(=O)O)c2nc(N3CCOCC3)cc(=O)n2c1 (10 µM) | inactive: 0 | inactive: 0 | inactive: 0 | inactive: 0 | inactive: 0 | inactive: 0 | inactive: 0 | inactive: 0 | 0 | 0 | 0 | 0 | 0 | 0 | 0 | 0 | 0 | 0 | 0 | 0
C=C1C(=O)[C@@]23[C@H](O)C[C@@H]4C(C)(C)C(=O)CC[C@@]4(C)[C@@H]2CC[C@@H]1[C@H]3O [Glaucocalyxin A] (2.5 µM) | inactive: 0 | inactive: 0 | inactive: 0 | inactive: 0 | inactive: 0 | inactive: 0 | inactive: 0 | inactive: 0 | 0 | 0 | 1 | 0 | 0 | 0 | 0 | 0 | 1 | 0 | 2 | 0
Nc1nc(NCCNc2ncc(-n3ccnc3)c(-c3ccc(Cl)cc3Cl)n2)ccc1[N+](=O)[O-] (2.5 µM) | inactive: 0 | inactive: 0 | inactive: 0 | inactive: 0 | inactive: 0 | inactive: 0 | inactive: 0 | inactive: 0 | 4 | 0 | 4 | 0 | 0 | 0 | 0 | 0 | 0 | 0 | 1 | 0
CNC(=O)CNc1cnc2ccc(-c3ccc(OC)c(OC)c3)cc2n1 (10 µM) | inactive: 0 | inactive: 0 | inactive: 0 | inactive: 0 | inactive: 0 | inactive: 0 | inactive: 0 | inactive: 0 | 0 | 0 | 0 | 0 | 0 | 0 | 0 | 0 | 0 | 0 | 0 | 0
O=C(NCCO)c1cc(C(=O)NCCO)cc(C(=O)NCCO)c1 (10 µM) | inactive: 0 | inactive: 0 | inactive: 0 | inactive: 0 | inactive: 0 | inactive: 0 | inactive: 0 | inactive: 0 | 0 | 0 | 0 | 0 | 0 | 0 | 0 | 0 | 0 | 0 | 0 | 0
COc1ccc(S(=O)(=O)Nc2cc(-c3c(O)ccc4ccccc34)c(O)c3ccccc23)cc1 (10 µM) | inactive: 0 | inactive: 0 | inactive: 0 | inactive: 0 | inactive: 0 | inactive: 0 | inactive: 0 | inactive: 0 | 0 | 0 | 0 | 0 | 0 | 0 | 0 | 0 | 0 | 0 | 0 | 0
CN1CCC(CNc2ccc3ncc(-c4cccc(OC(F)(F)F)c4)n3n2)CC1 (2.5 µM) | inactive: 0 | inactive: 0 | inactive: 0 | inactive: 0 | inactive: 0 | inactive: 0 | inactive: 0 | inactive: 0 | 0 | 0 | 0 | 0 | 0 | 0 | 0 | 0 | 0 | 0 | 0 | 0
C#Cc1cccc(Nc2ncnc3cc(OC)c(NC(=O)N4C[C@H]5CCN(C)[C@H]5C4)cc23)c1 [Theliatinib] (10 µM) | inactive: 0 | inactive: 0 | inactive: 0 | inactive: 0 | inactive: 0 | inactive: 0 | inactive: 0 | inactive: 0 | 0 | 0 | 0 | 0 | 0 | 0 | 0 | 0 | 0 | 0 | 0 | 0

Complete entries as entered above. Values in the order: kinase-Nluc reporter destabilization hit call (STK38)	kinase-Nluc reporter destabilization hit call (SYK)	kinase-Nluc reporter destabilization hit call (TEC)	kinase-Nluc reporter destabilization hit call (TYK2)	kinase-Nluc reporter destabilization hit call (ULK3)	kinase-Nluc reporter destabilization hit call (YES1)	kinase-Nluc reporter destabilization hit call (ZAK)	kinase-Nluc reporter destabilization hit call (ZAP70)	number of time points (ABL1)	number of time points (AKT1)	number of time points (ALK)	number of time points (ARAF)	number of time points (AURKA)	number of time points (AURKB)	number of time points (AURKC)	number of time points (BLK)	number of time points (BMX)	number of time points (BRAF)	number of time points (BRAF_V600E)	number of time points (BTK)
CCC(=O)Nc1cccc(Oc2nc(Nc3ccc(N4CCN(C)CC4)cc3OC)ncc2Cl)c1 (10 µM) reads inactive: 0	inactive: 0	inactive: 0	inactive: 0	inactive: 0	inactive: 0	inactive: 0	inactive: 0	0	0	0	0	0	0	0	0	0	0	0	0
CN1CCC(CNc2ccc3ncc(-c4cccc(OC(F)(F)F)c4)n3n2)CC1 (2.5 µM) reads inactive: 0	inactive: 0	inactive: 0	inactive: 0	inactive: 0	inactive: 0	inactive: 0	inactive: 0	0	0	0	0	0	0	0	0	0	0	0	0

Source: the supplement of paper PMC12823440, “Inhibitors supercharge kinase turnover through native proteolytic circuits” (Nature, 2025)
